# Results reported in the supplement of paper PMC8728848.
# This is one part of the list.
# B1: GS7807F-bth-514-18-514 (Bacteroides thetaiotaomicron) (protein)
# chain: AGSCTGNFEEYNTNQFQIHEADPSTLMKSMIETIVNIQQNDSQMMDQMVGQLGGYLTCANVWSGTNFGTFNQSDAWNAGPWNTNFEKIYGNFFQIQEATNESGHYYAFARMIRAITMLRVADCYGPMPYSQVKKGNFYVAYDTEEQVYKNIMEDFASAANVLYNYYKDTNGNAPLASNDPVFSGNYANWARLANSMRLRVAIRISTAYPEMAKENAEAAASHEAGLIEANNDNAMMDCGSQTNPYQLAAVSWGDLRVNANIVDYMNGYGDPRMSKYFNHSTFTGHTQEYVGMRSGEDGFAKSDVAGYSIPAITGTSKLLVFCAAETAFLRAEGKLKNWSVGNKSAKEYYEEGIKLSMEQYGTTMPDNYLTNTEKPTVSHNNDPRGHAYTISNTVAVAWNDNNEEENLQRIITQKWIANYPLGLEAWAEYRRTGYPELYPCIDNLSPSGVDSKRGMRRLRFPYTEVQNNHSNYQQGVSYLKNGGPDNEATDLSWGKTN
# Legend:
# Experiment in all cases: glycan array binding signal (z-score within array); higher = stronger binding
# Conditions in all cases: glycan notation: IUPAC condensed, linker removed
# [1] = biological target: Man(a1-3)[Man(a1-6)]Man(a1-6)[Man(a1-3)]Man
# Summary of the method: (§1)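 Arrays were curated from the Consortium for Functional Glycomics database, 3228 in total, and kept only where the protein sequence was available. Binding is expressed as a within-array Z-score. This score was averaged across arrays of the same protein sequence at different concentrations or buffers and across linkers, and negative values can be read as non-binding.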
# [2] = biological target: Man(a1-3)[Man(a1-6)]Man(a1-6)[Man(a1-3)]Man(b1-4)GlcNAc(b1-4)GlcNAc
# Summary of the method: as §1
# [3] = biological target: Man(a1-3)[Man(a1-6)]Man(b1-4)GlcNAc(b1-4)GlcNAc
# Summary of the method: as §1
# [4] = biological target: Man(a1-3)[Man(a1-6)]Man(b1-4)GlcNAc(b1-4)[Fuc(a1-6)]GlcNAc
# Summary of the method: as §1
# [5] = biological target: Man(a1-6)Man
# Summary of the method: as §1
# [6] = biological target: Man(b1-4)GlcNAc
# Summary of the method: as §1
# [7] = biological target: MurNAc(b1-4)GlcNAc
# Summary of the method: as §1
# [8] = biological target: Neu5Ac(a2-3)Gal
# Summary of the method: as §1
# [9] = biological target: Neu5Ac(a2-3)Gal(b1-3)GalNAc
# Summary of the method: as §1
# [10] = biological target: Neu5Ac(a2-3)Gal(b1-3)GalNAc(b1-3)Gal(a1-4)Gal(b1-4)Glc
# Summary of the method: as §1
# [11] = biological target: Neu5Ac(a2-3)Gal(b1-3)GalNAc(b1-4)[Neu5Ac(a2-3)]Gal(b1-4)Glc
# Summary of the method: as §1
# [12] = biological target: Neu5Ac(a2-3)Gal(b1-3)GalNAc(b1-4)[Neu5Ac(a2-8)Neu5Ac(a2-3)]Gal(b1-4)Glc
# Summary of the method: as §1
# [13] = biological target: Neu5Ac(a2-3)Gal(b1-3)GalNAc6S
# Summary of the method: as §1
# [14] = biological target: Neu5Ac(a2-3)Gal(b1-3)GlcNAc
# Summary of the method: as §1
# [15] = biological target: Neu5Ac(a2-3)Gal(b1-3)GlcNAc(b1-2)Man
# Summary of the method: as §1
# [16] = biological target: Neu5Ac(a2-3)Gal(b1-3)GlcNAc(b1-2)Man(a1-3)[GlcNAc(b1-4)][Neu5Ac(a2-3)Gal(b1-3)GlcNAc(b1-2)Man(a1-6)]Man(b1-4)GlcNAc(b1-4)GlcNAc
# Summary of the method: as §1
# [17] = biological target: Neu5Ac(a2-3)Gal(b1-3)GlcNAc(b1-2)Man(a1-3)[Neu5Ac(a2-3)Gal(b1-3)GlcNAc(b1-2)Man(a1-6)]Man(b1-4)GlcNAc(b1-4)GlcNAc
# Summary of the method: as §1
# [18] = biological target: Neu5Ac(a2-3)Gal(b1-3)GlcNAc(b1-3)Gal(b1-3)GlcNAc
# Summary of the method: as §1
# [19] = biological target: Neu5Ac(a2-3)Gal(b1-3)GlcNAc(b1-3)Gal(b1-4)GlcNAc
# Summary of the method: as §1
# [20] = biological target: Neu5Ac(a2-3)Gal(b1-3)GlcNAc(b1-3)GalNAc
# Summary of the method: as §1
# [21] = biological target: Neu5Ac(a2-3)Gal(b1-3)GlcNAc(b1-4)Gal(b1-4)Glc
# Summary of the method: as §1
# [22] = biological target: Neu5Ac(a2-3)Gal(b1-3)GlcNAc(b1-6)GalNAc
# Summary of the method: as §1
# [23] = biological target: Neu5Ac(a2-3)Gal(b1-3)GlcNAc6S
# Summary of the method: as §1
# [24] = biological target: Neu5Ac(a2-3)Gal(b1-3)[Fuc(a1-4)]GlcNAc
# Summary of the method: as §1
# [25] = biological target: Neu5Ac(a2-3)Gal(b1-3)[Fuc(a1-4)]GlcNAc(b1-3)Gal(b1-3)[Fuc(a1-4)]GlcNAc
# Summary of the method: as §1
# [26] = biological target: Neu5Ac(a2-3)Gal(b1-3)[Fuc(a1-4)]GlcNAc(b1-3)Gal(b1-4)[Fuc(a1-3)]GlcNAc
# Summary of the method: as §1
# [27] = biological target: Neu5Ac(a2-3)Gal(b1-3)[GlcNAc(b1-6)]GalNAc
# Summary of the method: as §1
# [28] = biological target: Neu5Ac(a2-3)Gal(b1-3)[Neu5Ac(a2-6)]GalNAc
# Summary of the method: as §1
# [29] = biological target: Neu5Ac(a2-3)Gal(b1-3)[Neu5Ac(a2-6)]GlcNAc(b1-3)[Fuc(a1-3)[Gal(b1-4)]GlcNAc(b1-6)]Gal(b1-4)Glc
# Summary of the method: as §1
# [30] = biological target: Neu5Ac(a2-3)Gal(b1-3)]Neu5Ac(a2-3)Gal(b1-4)]GlcNAc
# Summary of the method: as §1
# [31] = biological target: Neu5Ac(a2-3)Gal(b1-4)Glc
# Summary of the method: as §1
# [32] = biological target: Neu5Ac(a2-3)Gal(b1-4)GlcNAc
# Summary of the method: as §1
# [33] = biological target: Neu5Ac(a2-3)Gal(b1-4)GlcNAc(b1-2)Man
# Summary of the method: as §1
# [34] = biological target: Neu5Ac(a2-3)Gal(b1-4)GlcNAc(b1-2)Man(a1-3)[GlcNAc(b1-4)][Neu5Ac(a2-3)Gal(b1-4)GlcNAc(b1-2)Man(a1-6)]Man(b1-4)GlcNAc(b1-4)GlcNAc
# Summary of the method: as §1
# [35] = biological target: Neu5Ac(a2-3)Gal(b1-4)GlcNAc(b1-2)Man(a1-3)[Neu5Ac(a2-3)Gal(b1-4)GlcNAc(b1-2)Man(a1-6)]Man(b1-4)GlcNAc(b1-4)GlcNAc
# Summary of the method: as §1
# [36] = biological target: Neu5Ac(a2-3)Gal(b1-4)GlcNAc(b1-2)Man(a1-3)[Neu5Ac(a2-3)Gal(b1-4)GlcNAc(b1-2)Man(a1-6)]Man(b1-4)GlcNAc(b1-4)[Fuc(a1-6)]GlcNAc
# Summary of the method: as §1
# [37] = biological target: Neu5Ac(a2-3)Gal(b1-4)GlcNAc(b1-2)Man(a1-3)[Neu5Ac(a2-6)Gal(b1-4)GlcNAc(b1-2)Man(a1-6)]Man(b1-4)GlcNAc(b1-4)GlcNAc
# Summary of the method: as §1
# [38] = biological target: Neu5Ac(a2-3)Gal(b1-4)GlcNAc(b1-2)[Neu5Ac(a2-3)Gal(b1-4)GlcNAc(b1-4)]Man(a1-3)[GlcNAc(b1-4)][Neu5Ac(a2-3)Gal(b1-4)GlcNAc(b1-2)[Neu5Ac(a2-3)Gal(b1-4)GlcNAc(b1-6)]Man(a1-6)]Man(b1-4)GlcNAc(b1-4)GlcNAc
# Summary of the method: as §1
binder,measurement,setting,value
B1,glycan array binding signal (z-score),[1],-0.58
same,glycan array binding signal (z-score),[2],0.373
same,glycan array binding signal (z-score),[3],-0.766
same,glycan array binding signal (z-score),[4],-0.839
same,glycan array binding signal (z-score),[5],0.079
same,glycan array binding signal (z-score),[6],-0.74
same,glycan array binding signal (z-score),[7],-0.903
same,glycan array binding signal (z-score),[8],-0.866
same,glycan array binding signal (z-score),[9],-0.393
same,glycan array binding signal (z-score),[10],-0.63
same,glycan array binding signal (z-score),[11],-0.663
same,glycan array binding signal (z-score),[12],-0.426
same,glycan array binding signal (z-score),[13],-0.85
same,glycan array binding signal (z-score),[14],-0.648
same,glycan array binding signal (z-score),[15],0.022
same,glycan array binding signal (z-score),[16],-0.496
same,glycan array binding signal (z-score),[17],0.876
same,glycan array binding signal (z-score),[18],-0.891
same,glycan array binding signal (z-score),[19],-0.842
same,glycan array binding signal (z-score),[20],-0.871
same,glycan array binding signal (z-score),[21],-0.518
same,glycan array binding signal (z-score),[22],2.43
same,glycan array binding signal (z-score),[23],-0.491
same,glycan array binding signal (z-score),[24],-0.85
same,glycan array binding signal (z-score),[25],-0.848
same,glycan array binding signal (z-score),[26],0.124
same,glycan array binding signal (z-score),[27],-0.857
same,glycan array binding signal (z-score),[28],-0.819
same,glycan array binding signal (z-score),[29],-0.355
same,glycan array binding signal (z-score),[30],-0.664
same,glycan array binding signal (z-score),[31],-0.164
same,glycan array binding signal (z-score),[32],0.054
same,glycan array binding signal (z-score),[33],-0.11
same,glycan array binding signal (z-score),[34],-0.896
same,glycan array binding signal (z-score),[35],-0.629
same,glycan array binding signal (z-score),[36],-0.842
same,glycan array binding signal (z-score),[37],0.223
same,glycan array binding signal (z-score),[38],-0.844

# Already shown: entries from further up.
binder,measurement,setting,value
B1,glycan array binding signal (z-score),[11],-0.663
same,glycan array binding signal (z-score),[12],-0.426
same,glycan array binding signal (z-score),[13],-0.85
same,glycan array binding signal (z-score),[14],-0.648
same,glycan array binding signal (z-score),[15],0.022
same,glycan array binding signal (z-score),[16],-0.496
same,glycan array binding signal (z-score),[17],0.876
same,glycan array binding signal (z-score),[18],-0.891
